The whole screen tested about 210,000 compounds, of which about 5,900 (2.8%) were called active. Inconclusive results (about 5%) are left out. Calls follow the shape of the dose curve; as a rule, active = well fitted activation curve with a large enough effect; inconclusive = small, poorly fitted or top-dose-only effect; inactive = no such curve, though single readings can be large or run the other way. The list shows a part of the results, in another mix than the full data. Entries without a call were filed so in the source.
Potency is read from the fitted curve at half-maximal effect.

The nature of the experiment: qHTS Assay for Enhancers of SMN2 Splice Variant Expression. Also: nearly all actives have a fitted effect of over 55% in size. As to activity change, positive = activation: % of control where 0% means no effect. The settings on record: HEK293 SMN2-luciferase splicing reporter, luminescence, 30-36 h; activity change, positive = activation: at 46.1 µM (top of the series) unless noted. The method, boiled down:
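qHTS luciferase splicing reporter: luminescence rises when SMN2 exon 7 is included in transfected HEK293 cells. Compound exposure lasted 30-36 h at 37C, with 4.5 mM final sodium butyrate as control, followed by a ONE-Glo read.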
A general note: Quantitative high-throughput screening tests each substance at several concentrations.
Take `CNc1ccc(C(O)(C(F)(F)F)C(F)(F)F)cc1C(O)(C(F)(F)F)C(F)(F)F`: the activity change, positive = activation is 26.1%. Same read-out and setting: the result for `CCOC(=O)N1CCN(C(=O)CSc2nnc(-c3cc(OC)ccc3OC)o2)CC1` reads 37.9%. `Cc1ccc2[nH]cc(C(=O)CCl)c2c1`: the activity change, positive = activation is -84%.

Regarding `N#Cc1ccc(C(=O)Nc2ccn(-c3ccccc3)n2)cc1`, the “activity change, positive = activation” value is inactive: -52.7%. For the molecule `CCOc1ccc(-c2cc(C(=O)N3CCN(C)CC3)c3ccccc3n2)cc1`, the Potency was active: 11.2 µM. In the case of `COc1ccc(COc2cc(-c3cccc(OC)c3)nc3ccc(NC(=O)c4ccccc4)cc23)cc1`, the “activity change, positive = activation” value was inactive: -2.14%. For the molecule `CCOC(=O)CC1=Nc2ccccc2NC(=O)C1`, the activity change, positive = activation is 39.2%. On to `Cc1ccc2nc3c(c(Nc4ccc5c(c4)OCCO5)c2c1)CCC3`, for which the “activity change, positive = activation” value was inactive: -39.6%. Same read-out and setting: with `Cc1cc(C)n(/N=C/c2cccc(O)c2)c(=O)c1C(N)=O` the figure was 30.4%; with `Cc1cccc(NC(=S)N/C(=N/S(=O)(=O)c2ccccc2)c2ccccc2)c1`, 31.6%; with `Cc1ccsc1/C=C1\CCC(C2CCCC2)C1=O` (centres undefined), 109%. The same measure, in the same setting: with `CCc1nc(Nc2ccncc2)c2oc3ccccc3c2n1` the figure was -31.7%; with `CCC1(c2cccc(Cl)c2)NC(=O)N(Cc2cc(C(=O)OC)c(C)o2)C1=O` (centres undefined), -53%; with `CCOC(=O)C1CCCN(S(=O)(=O)c2cc(OCC(=O)NC3CCCCC3)c(C)cc2Cl)C1` (centres undefined), inactive: -48.7%. `O=C(Nc1ccc(F)cc1)c1nn(-c2ccccc2)c(=O)cc1Cl`: the activity change, positive = activation is -112%. With `CN1CCCC(OC(=O)CCCC(=O)OC2CCCN(C)C2)C1` (centres undefined), the activity change, positive = activation was 50.8%. For `CCOC(=O)c1c(C)oc2c1c(C(c1cccnc1)N1CCN(C)CC1)c(O)c1ccccc12` (centres undefined), the activity change, positive = activation was 44.8%. The same measure, in the same setting: the result for `CN(C)c1ccc(/C=N/NC(=O)CCCO)cc1` reads inactive: 13.2%; that for `CCN(CC)c1ccc(NC(=O)c2cnc3ccccn3c2=O)c(C)c1`, -82.1%; that for `COc1ccccc1-n1c(=O)oc2ccc(Cl)cc2c1=O`, -85%. On to `Cc1ccc(C)c(N(C(=O)Cn2nnc3ccccc32)C(C(=O)NCc2ccco2)c2ccncc2)c1` (centres undefined), for which the activity change, positive = activation came to 33.5%. Regarding `O=C(c1ccc(Cn2c(=S)[nH]c3ccccc3c2=O)cc1)N1CCN(c2ccccn2)CC1`, the “activity change, positive = activation” value was inactive: -97.5%. With `C=C(C)c1cccc(C(C)(C)NC(=O)N2CCN(C)CC2)c1`, the activity change, positive = activation worked out at 30.7%. Consider `Cc1ccc(C(=O)O)cc1S(=O)(=O)N1CCC(C(=O)O)CC1`, for which the Potency was active: 11.2 µM. As for `CSCc1ccc(C(=O)Nc2ccc(C(N)=O)cc2)cc1`, the Potency is active: 11.2 µM. As to `Cc1ccc(N2C(=O)CCC2(C(N)=O)c2ccccc2)cc1` (centres undefined), the activity change, positive = activation amounted to 30.5%. Still for that read-out and setting: the result for `CC1(C)Cc2ccccc2-c2nnc(SCC(=O)N3CCN(c4ccccc4)CC3)n21` reads -87.4%. Regarding `Cc1ccccc1Nc1c(-c2ccccn2)nc2ccccn12`, the activity change, positive = activation is -5.46%.

`COc1cccc(-n2c(C)nc3c(cnn3-c3ccc(C)cc3)c2=O)c1`: the activity change, positive = activation was -49.5%.

As for `CCOC(=O)c1[nH]c2ccccc2c1NC(=O)c1ccc(Br)o1`, the “activity change, positive = activation” value is inactive: -60.4%. In the case of `Cc1ccc(C)n1-c1ccc(NC(=O)c2ccccc2)cc1`, the Potency is active: 11.2 µM. As for `COc1ccc(/C=N/NC(=O)c2ccc(=O)n(C)c2)cc1OC`, the “activity change, positive = activation” value is inactive: 8.46%. Take `COc1cccc(C2CC(=O)Nc3cc4c(cc32)CCC4)c1` (centres undefined): the activity change, positive = activation is -43.1%.

For `O=C(Nc1sc2c(c1C(=O)O)CCC2)c1ccccc1`, the Potency was active: 10 µM. Consider `O=c1n(-c2ccc(Br)cc2)cnn1-c1ncccc1[N+](=O)[O-]`, for which the Potency was active: 12.6 µM.

On to `O=C(Nc1nc2ccc(SC(F)F)cc2s1)c1ccc2c(c1)S(=O)(=O)c1ccccc1C2=O`, for which the activity change, positive = activation was -25.2%.

With `CCCCOc1ccc(C(=O)N/N=C/c2cn[nH]c2-c2ccc(OC)c(OC)c2)cc1`, the “activity change, positive = activation” value is inactive: -1.23%. On the same count and under the same terms, the result for `Clc1nc(Cl)nc(N(c2ccccc2)c2ccccc2)n1` reads 8.88%; that for `COc1ccccc1C(=O)Nc1ccc2c3c(cccc13)CC2`, 59%. Turning to `N#Cc1nc(-c2ccc(F)cc2)oc1NCc1ccccc1`, the activity change, positive = activation was -33.5%. `C=CCNc1nc(NCCN2CCOCC2)nc(N2CCOCC2)n1`: the activity change, positive = activation came out at 30.3%.

As for `O=C(ONc1ccc(N=NC(=O)c2ccccc2O)cc1)c1ccccc1`, the activity change, positive = activation was -32.2%. With `Cc1cc2nc(-c3cccnc3SCC(=O)NCc3ccco3)[nH]c2cc1C`, the Potency is active: 12.6 µM. Consider `CCCCOCCCNC(=O)c1c(-c2ccccc2)noc1C`, for which the activity change, positive = activation worked out at 39.8%. The same measure, in the same setting: with `Cc1cc(Cl)ccc1OCCCC(N)=O` the figure was 30.4%; with `COc1ccc(-c2nc(S(=O)(=O)c3ccc(Cl)cc3)c(NCc3ccccc3)o2)cc1`, 29.3%.

For `COn1c(=O)c(-c2ccc(Cl)cc2)[n+]([O-])c2ccccc21`, the activity change, positive = activation is 30.6%. Consider `O=C(NCCCn1ccnc1)C(=O)NCC1OCCN1S(=O)(=O)c1ccc(Br)cc1` (centres undefined), for which the “activity change, positive = activation” value is inactive: -31.2%. With `C=C(C)CSc1nnc(-c2ccc(C)cc2)n1N`, the Potency is active: 8.91 µM.

As to `O=C(Nc1ccon1)c1cccc(C(F)(F)F)c1`, the activity change, positive = activation is 35%. As to `CCOc1ccc2cc(S(=O)(=O)N3CCOCC3)ccc2c1`, the “activity change, positive = activation” value is inactive: -46.5%. Turning to `O=C(/C=C/c1ccco1)Nc1ccc2c(c1)OCO2`, the Potency was active: 10 µM.

As for `O=C(NC1CCCC1)c1n[nH]c2ccccc12`, the activity change, positive = activation stood at 267%.

`Cc1ccc(/C=C/C(=O)N2CCN(c3cccc(C(F)(F)F)c3)CC2)cc1`: the activity change, positive = activation was -60.3%.

Regarding `CCOc1ccc(C(=O)NC2CCN(S(C)(=O)=O)CC2)cc1`, the activity change, positive = activation is -35.8%. On to `O=C(/C=C1\NC2(CCCC2)Cc2ccccc21)C(=O)N/N=C/c1ccc(O)c(O)c1`, for which the activity change, positive = activation was determined as 55%. For the molecule `Cc1nccc2[nH]c(=O)c(C(=O)NCCCN(C)C3CCCCC3)cc12`, the activity change, positive = activation amounted to 20%.

As for `Cc1ccc(NS(=O)(=O)c2ccc(N/N=C/c3ccncc3)c([N+](=O)[O-])c2)c(C)c1`, the activity change, positive = activation was -13.6%. Regarding `CCOc1ccc(C2=CS/C(=C(\C#N)c3nnc4n3CCCCC4)N2CC)cc1`, the activity change, positive = activation is -48.1%. For `COc1cc(C(CC(=O)O)n2cnnn2)ccc1OC(C)C` (centres undefined), the activity change, positive = activation was -58.3%.

On to `CC(=O)N1CCN(C2c3cccc4cccc(c34)C2NS(=O)(=O)c2ccccc2)CC1` (centres undefined), for which the activity change, positive = activation worked out at 43.9%. Turning to `CCc1ccc(CNC(=O)c2cc3n(n2)CCCN(Cc2ccccc2)C3=O)cc1`, the “activity change, positive = activation” value was inactive: -54%.

`O=C(c1ccco1)N1CCC2(CC1)CCN(c1ccncc1)CC2`: the “activity change, positive = activation” value was inactive: -43.4%. On the same count and under the same terms, the result for `Fc1ccc(C(c2nnnn2Cc2ccco2)N2CCN(C3CCCCC3)CC2)cc1` (centres undefined) reads 53.7%; that for `O=C(Nc1ccc(Cl)cc1)c1cc(S(=O)(=O)N2CCOCC2)cs1`, inactive: -64.6%. As for `O=C(CSc1ccccc1C(=O)NCc1ccccc1)NC1CCCCCCC1`, the “activity change, positive = activation” value was inactive: -36.7%. Regarding `O=C(Nc1ccc2c(c1)CCC2)c1ccccc1Br`, the activity change, positive = activation stood at 448%. On the same count and under the same terms, with `CN(C)c1ccc(N/C=C/C(=O)c2ccco2)cc1` the figure was 49.9%; with `Cc1nnc(N2CCN(Cc3ccccc3)CC2)[nH]c1=O`, 31%.

Source of the values: PubChem BioAssay AID1458 (National Center for Advancing Translational Sciences (NCATS), 2008).
